Source: patent US20130110249A1 (UNIVERSITY OF ROCHESTER, published 2013)
Results are given in words; binding and its absence hold for the method and conditions named. Some binding calls cover weakened binding; strength is not graded here. For some assays here: Where a sequence is shown, tags or fusion partners need not be part of it.

Key:
[1] = biological target: T1, native Gmd enzyme secreted by S. aureus strain UAMS-1 (Staphylococcus aureus) (UniProt P0C5Z8); experiment: by the measure of enzyme inhibition
T1 sequence (looked up): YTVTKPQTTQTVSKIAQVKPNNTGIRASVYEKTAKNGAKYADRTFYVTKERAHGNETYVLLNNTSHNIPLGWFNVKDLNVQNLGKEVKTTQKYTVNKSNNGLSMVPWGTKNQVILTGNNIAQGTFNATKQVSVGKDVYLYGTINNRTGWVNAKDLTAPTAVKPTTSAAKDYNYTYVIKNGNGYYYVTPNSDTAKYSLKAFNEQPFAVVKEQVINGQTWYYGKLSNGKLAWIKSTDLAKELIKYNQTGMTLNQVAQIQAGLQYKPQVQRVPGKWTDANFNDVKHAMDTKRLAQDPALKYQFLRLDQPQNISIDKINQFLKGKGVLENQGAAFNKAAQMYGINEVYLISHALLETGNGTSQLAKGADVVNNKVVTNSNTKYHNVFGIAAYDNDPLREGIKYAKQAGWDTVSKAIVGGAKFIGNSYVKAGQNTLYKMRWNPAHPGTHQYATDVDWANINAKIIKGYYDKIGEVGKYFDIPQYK

[2] = biological target: T2, native Gmd of S. aureus Xen29 (Staphylococcus aureus) (UniProt P0C5Z8); experiment: inferred from the Xen29 growth (light scattering) assay
T2 sequence (looked up): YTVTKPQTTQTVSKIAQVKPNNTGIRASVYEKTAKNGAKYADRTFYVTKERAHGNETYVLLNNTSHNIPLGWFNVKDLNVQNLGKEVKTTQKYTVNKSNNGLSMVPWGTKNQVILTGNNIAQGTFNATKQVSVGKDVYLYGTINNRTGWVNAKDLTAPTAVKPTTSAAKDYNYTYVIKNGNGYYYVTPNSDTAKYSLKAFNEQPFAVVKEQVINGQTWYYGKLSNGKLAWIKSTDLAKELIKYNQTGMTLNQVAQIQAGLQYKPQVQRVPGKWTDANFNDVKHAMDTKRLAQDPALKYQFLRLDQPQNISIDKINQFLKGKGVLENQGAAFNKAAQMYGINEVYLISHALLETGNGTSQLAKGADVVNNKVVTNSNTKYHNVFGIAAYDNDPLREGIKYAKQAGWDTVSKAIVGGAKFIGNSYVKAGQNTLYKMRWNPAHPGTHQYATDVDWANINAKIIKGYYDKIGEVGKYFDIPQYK

[3] = biological target: T3, recombinant His-glucosaminidase (His-Gmd) of Staphylococcus aureus autolysin (Staphylococcus aureus) (UniProt A7X0T9); experiment: by the measure of enzyme inhibition
T3 sequence: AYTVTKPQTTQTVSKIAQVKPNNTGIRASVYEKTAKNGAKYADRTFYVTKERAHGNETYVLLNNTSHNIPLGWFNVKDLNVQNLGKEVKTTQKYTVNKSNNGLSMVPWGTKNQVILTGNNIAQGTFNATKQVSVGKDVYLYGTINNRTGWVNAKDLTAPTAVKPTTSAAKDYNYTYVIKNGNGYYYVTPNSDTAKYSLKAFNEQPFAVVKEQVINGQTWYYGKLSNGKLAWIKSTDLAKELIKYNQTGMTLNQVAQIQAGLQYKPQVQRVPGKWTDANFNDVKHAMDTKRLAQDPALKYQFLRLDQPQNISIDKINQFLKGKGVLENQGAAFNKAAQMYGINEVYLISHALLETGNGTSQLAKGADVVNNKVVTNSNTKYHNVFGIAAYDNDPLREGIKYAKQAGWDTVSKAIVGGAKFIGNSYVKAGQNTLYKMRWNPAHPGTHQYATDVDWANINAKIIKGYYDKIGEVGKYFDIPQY

B1: anti-Gmd monoclonal antibody 1C11 (antibody, V domains shown)
VH: QIQLVQSGPELKKPGETVKISCKASGYTFTTYGMSWVNQAPGKGLKWMGWINTYSGVPTYADDFKGRFVFSLETSASTAYLQINNLKNEDTATYFCAREEYSSGYAAWFPYWGQGTLVTVSA
VL: DIVLTQSPATLSVTPGDSVSLSCRASQSISNNLHWYQQKSHESPRLLIEYASRSISGIPSRFSGGGSGTDFTLSINSVESEDFGLYFCQQSNSWPLTFGAGTKLELK
notes: also called mAb 1C11; mouse 1C11
B1 was tested, and the binding [1] was “binds” and the binding [2] was “binds”.

B2: anti-Gmd monoclonal antibody 3A8 (antibody, V domains shown)
VH: EVQLQESGGGLVQPGGSMKLSCAASGFTFSDAWMDWVRQSPEKGLEWVAEIKDKTNNHATYYAESVKGRFTISRDVSKSRVFLQMNSLRPEDTGIYYCTSGPYFDYWGQGTTLTVSS
VL: DIVMTQSHKFMSTSVGDRVSITCKASQDVSTAVAWYQQKPGQSPKLLIYWTSTRHTGVPDRFTGSGSGTDFTLTISSVQAKDLALYYCQQHYTTPYTFGGGTKLEIK
notes: also called mAb 3A8; hybridoma 3A8
For B2, the binding [1] was “binds”, the binding [3] was “binds” and the binding [2] was “binds”.
